Hit rate of the full screen: of about 52,000 sequences, about 210 (0.4%) were called active.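 How the source made its calls: active means gene whose silencing raises cell survival under the drug, median off-target-corrected z-score across its silencing RNAs 2 or more; inactive means the rest.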 This is one part of the list.
Test: Resistance to Poly (ADP-Ribose) Polymerase inhibitor: Gene Identification via Genome-wide siRNA Screen
Settings: mouse BRCA2 R2336H ES cells, olaparib, CellTiter-Glo viability; hits give high values
Summary of the method: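 Genome-wide siRNA screen (3 siRNAs/gene, 20 nM) in mouse ES cells carrying hypomorphic BRCA2 R2336H; olaparib 500 nM added 48 h post-transfection, CellTiter-Glo viability 72 h later. Normalized to plate-median negative control; MAD z-scores, gene median, seed-adjusted.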

| Sequence | z-score |
| --- | --- |
| GGACAUUAGGAUCAGAACCTT against MGC73851 | inactive: -1.39 |
| GGGAUUGUAACAGCAUCCCTT against Epha6 | inactive: 0.0863 |
| GGUUUGUAAAGGUUAUGACTT against Nell2 | inactive: 0.267 |
| CGAAGAGAUCAGUAAUAUGTT against Kif21a | inactive: -0.489 |
| GGCUAAAGGCCUUCUUUUUTT against D10Ucla1 | inactive: 0.394 |
| CGAGUGAGUGACGGCUACATT against Sema3e | inactive: -0.942 |
| GCAGCUCUGCGGAAGCUUUTT against Olfr1350 | inactive: 1.34 |
| GCUUUUACAAGACCUGUUCTT against Pde2a | active: 1.02 |
| GGAGAGAAAAAGGACUCAGTT against Kcnd2 | inactive: -2.21 |
| CGUGGUGAACGAGAUUGAUTT against Kcnab1 | inactive: 0.257 |
| GAGUGUCUUGAACACAGCCTT against Olfr635 | inactive: -0.396 |
| GGUCAAGUCAAGAGUGAGATT against LOC434439 | inactive: 0.0853 |
| GGUAUAUCGCCUAAUCACUTT against 5430439G14Rik | inactive: 0.398 |
| GGAGCUAGCAAGUAAAACUTT against Lbx2h | inactive: 0.447 |
| GCAACUGAGAGAUGUCAUCTT against AI595338 | inactive: 0.706 |
| GGUACUGUUUGCAUUUAUUTT against C730042F17Rik | inactive: 0.404 |
| GCUCCUAGAUUGCACCUACTT against Sez6l2 | inactive: 0.158 |
| GGUAUCGAAGAACUGGAAATT against Spg4 | inactive: 0.837 |
| GCAAAAAUUAUGCAGAGCATT against Olfr1443 | inactive: 2.55 |
| GGAUGGAGUGCCCUCAAGUTT against Pdk2 | inactive: -1.25 |
| GCUUUGUUUAUUUAGCCAGTT against Olfr154 | inactive: -0.0717 |
| GGCGGAGUUUUUAAUACUCTT against Upb1 | inactive: -0.0292 |
| GGAAUGAUCAUUCUAAUCCTT against Olfr1497 | inactive: 1.62 |
| GGAACGUGUUCAAAAGAGUTT against Sos1 | inactive: 0.513 |
| GGAGUCAAAUGAUUAUGUCTT against E430019B13Rik | inactive: 2.22 |
| GGUUUUGGAAAAUUUGCUATT against Hal | inactive: 0.733 |

| Sequence | z-score |
| --- | --- |
| GGUAGAAAAUUGUCUUUUCTT against Zcchc7 | inactive: 0.601 |
| CGGGACUUUAGAUUAUGAATT against Pcdha11 | inactive: -0.36 |
| GCUCUGCUGUGUUAUAUGGTT against C330011M18Rik | inactive: -0.729 |
| GCAGUUACAAGACUCCUUGTT against Catna3 | inactive: 0.0922 |
| CGUGGUGCAGAAUUUUUAUTT against Cldn14 | inactive: 0.758 |
| GGAAAAGGAGGAGGAAGGCTT against Lpin1 | inactive: -0.309 |
| GGAGCAUGAGGACAUCAGATT against Tnp1 | inactive: -2.53 |
| CGGGAAUCUAAAUAUGGUGTT against Oat | inactive: 1.35 |
| GCCGAGUUGAAGUGAAGAATT against Pold2 | inactive: -2.03 |
| GGUGGAGCUCAGUAUUCUGTT against Vmp | inactive: 0.138 |
| GCACUAUAAUUCUCAUUACTT against Omd | inactive: 0.805 |
| GGAUAUUUACCAUCAGUGATT against Prlpe | inactive: -0.679 |
| GCACAUUUAUCCCGGUGUATT against 0610039C21Rik | inactive: -0.0939 |
| CGAUGACUGUAAAAAGUCUTT against Plcb1 | inactive: 0.464 |
| GGCAGAAUGUUGUAAAUGATT against Man2b1 | inactive: -1.45 |
| CCAUCUGAGAACAUCAUUGTT against Hr6bn | inactive: 1.42 |
| GGUUUGACAAGUUCUUUUGTT against B930041G04 | inactive: -0.11 |
| GCCUCCUAGUAUUUACAUGTT against Ube2j2 | inactive: 0.512 |
| GGCUUCCUGUUUGUUUGGATT against BC021614 | inactive: -0.33 |
| GGGUAAUACUCCUAAGAAATT against A630050E13Rik | inactive: 1.1 |
| CCCUUAAUAAAGAAGGGACTT against AU019532 | inactive: -0.754 |
| CCUCAAGGAACUGAAUGCCTT against Olfr1320 | inactive: 1.41 |
| CGAUGACCUUGAAUAAAAATT against Vim | inactive: 0.012 |
| GGACUUUGUCACCAUGACGTT against 2600002E23Rik | inactive: 0.643 |
| GCUCCUAAUCUAGGAUCUGTT against Prss22 | inactive: 2.35 |
| GGAGUACUGGGCAUAUAAATT against Slc29a3 | inactive: 0.29 |

| Sequence | z-score |
| --- | --- |
| GCUUAUGAGAUGAGUGAAUTT against D11Ertd707e | inactive: -0.671 |
| CCAUUGAAUCAGUUGAAGUTT against Slc5a7 | inactive: 0.312 |
| GGGUCACAGAGGUUACCCATT against Col2a1 | inactive: 0.0649 |
| GGCCUUUAGUGCCAUUGUUTT against 5930416I19Rik | inactive: -2.98 |
| GGGUGAAGAUUCUCUACAATT against Dctn3 | inactive: -2.07 |
| GGUUGUGAAGUGAGAAUUCTT against 4930429A08Rik | inactive: 0.292 |
| CGACACUCAAUGUGAACUUTT against Grtp1 | inactive: -0.287 |
| GCUGUCUAGUACAUCUGACTT against Cry2 | inactive: -1.2 |
| GCAAGGUGCACCUAAAGCATT against Egr4 | inactive: -2.04 |
| GGCAGGUUUGGUAACCAGATT against Fut1 | inactive: -0.814 |
| GGUUGUUGGCUGGAUGAUATT against Acvr2 | inactive: -1.23 |
| GCCUCAGUGUCUGUUGGAATT against 2310067B10Rik | inactive: -0.779 |
| GAGCCUCUGUCUUUUUCUATT against Olfr342 | inactive: 0.104 |
| CCUUACUGAUACUCAAUUUTT against Sec14l4 | inactive: 0.647 |
| GGACUCAAGCAAACUCCAGTT against Stx12 | inactive: -1.81 |
| GGCAGUUAGUAAGUUUAAATT against Eif5a2 | inactive: -0.0487 |
| GCAACAAUGUAUGCGUAUATT against Mrpl27 | inactive: 0.0358 |
| GCAUUAUGACUCUAAUAGCTT against Olfr60 | inactive: 0.536 |
| GCAGAAGACCGCUUAAACATT against 4930413O22Rik | inactive: -0.302 |
| GGAGACAGAGGAAAUUCAGTT against Apoa5 | inactive: 2.35 |
| GGACCCAGCAUUGGACUUGTT against Zranb1 | inactive: 1.2 |
| GGCCAUCAGAUUGGUGAAATT against Ccl17 | inactive: 0.657 |
| GGGCAAGAAUAAAUGAAAGTT against Hes1 | inactive: -0.63 |
| GGCAGUUUGACAACUUUAATT against Fibp | inactive: 0.0768 |
| GCAUUCAGAAAUUGAGGGUTT against Sin3b | inactive: -0.475 |
| GCCCAAACAUUCUUCGACUTT against Ubl3 | inactive: -1.19 |

Exported with bars between the fields: entries from further up
Sequence | z-score
GGCAGUUAGUAAGUUUAAATT against Eif5a2 | inactive: -0.0487
GCAACAAUGUAUGCGUAUATT against Mrpl27 | inactive: 0.0358
GCAUUAUGACUCUAAUAGCTT against Olfr60 | inactive: 0.536
GCAGAAGACCGCUUAAACATT against 4930413O22Rik | inactive: -0.302

Following part:

| Sequence | z-score |
| --- | --- |
| GCCAUUUUGUCAAUUCACCTT against 0610040B21Rik | inactive: 1.58 |
| CCGAUUUUUACUUUUAGCUTT against Slc16a7 | inactive: 0.605 |
| GGCAUCUUGGAGGAUUUGCTT against 0910001A06Rik | inactive: 1.02 |
| GGAGAGGUGGAAAUCUCUATT against Rasgef1c | inactive: 0.298 |
| CCAACUCGUGAUUCUAGACTT against 1110014C03Rik | inactive: 0.138 |
| GGGCUCCUUAUGGAGGAUATT against A630091E08Rik | inactive: -1.2 |
| GGCCUUGGAAAUGAUAAGUTT against Scrn3 | inactive: -0.359 |
| GGCCUGUGCACACUUCUGUTT against Edn3 | inactive: 1.24 |
| GGAACGAUGAGGAAAUCUCTT against Mclc | inactive: 0.622 |
| GGCCAGAAGAUUCCUAAAGTT against Gulp1 | inactive: 0.912 |
| CCCUCACAGCGACUUUAACTT against BC022765 | inactive: 0.663 |
| GGCUGCACCUGAAUUCCAATT against Lrrn1 | inactive: -0.205 |
| GGCAAAUACAGGCUAAAGUTT against Caps2 | inactive: -0.199 |
| GGAACAUGACAGAGAUUUUTT against Bai1 | inactive: 0.865 |
| GGUGCUUUCUGCUUACUGATT against Ephb2 | inactive: 1.43 |
| CCAAUGGAACAUUAAGUGATT against Psma1 | inactive: 1.97 |
| CUACGUGCUAGCUCAAGGATT against Mmp28 | inactive: 0.575 |
| GGCCAAAGAAGAAAUCCAATT against Pop4 | inactive: 1.14 |
| GUCAUCAAUCAAGUCUUGATT against Olfr1408 | inactive: -1.88 |
| GGGUUUCAUUAAAUUUCCUTT against Cyp2g1 | inactive: -0.283 |
| GGUGAAGACAGAAUUUCCGTT against 1700128F08Rik | inactive: 0.392 |
| GCUACACUAUUCUAGCAAATT against Cryzl1 | inactive: 0.0429 |
| GCAGUUGUCAUGCUAAACCTT against Ptpn2 | inactive: 0.398 |
| GGUGUUUAUCGACAGGUACTT against Myo15 | inactive: 0.775 |
| GGAGCAGAAAAUCGUUGUGTT against 1100001I22Rik | inactive: -2.96 |
| GGUGCAGUUGAACUUCUACTT against Dnajc1 | inactive: 0.682 |

From PubChem BioAssay AID1347423 (Functional Genomics Laboratory (NCATS/FGL), 2020)
